# No constants are given. Whether binding was seen depends on the method and setting. For part of these data: In cells and extracts the contact can be indirect. For part of these data: A result given as binding can be weak or reduced; the word gives no strength. For part of these data: Sequences can lack the tags named with a protein.
# Amino acid sequences for entries named in this document (tags omitted). A change or cut given only in a name is not applied to a line headed by its entry.
# UniProt G8JYD8: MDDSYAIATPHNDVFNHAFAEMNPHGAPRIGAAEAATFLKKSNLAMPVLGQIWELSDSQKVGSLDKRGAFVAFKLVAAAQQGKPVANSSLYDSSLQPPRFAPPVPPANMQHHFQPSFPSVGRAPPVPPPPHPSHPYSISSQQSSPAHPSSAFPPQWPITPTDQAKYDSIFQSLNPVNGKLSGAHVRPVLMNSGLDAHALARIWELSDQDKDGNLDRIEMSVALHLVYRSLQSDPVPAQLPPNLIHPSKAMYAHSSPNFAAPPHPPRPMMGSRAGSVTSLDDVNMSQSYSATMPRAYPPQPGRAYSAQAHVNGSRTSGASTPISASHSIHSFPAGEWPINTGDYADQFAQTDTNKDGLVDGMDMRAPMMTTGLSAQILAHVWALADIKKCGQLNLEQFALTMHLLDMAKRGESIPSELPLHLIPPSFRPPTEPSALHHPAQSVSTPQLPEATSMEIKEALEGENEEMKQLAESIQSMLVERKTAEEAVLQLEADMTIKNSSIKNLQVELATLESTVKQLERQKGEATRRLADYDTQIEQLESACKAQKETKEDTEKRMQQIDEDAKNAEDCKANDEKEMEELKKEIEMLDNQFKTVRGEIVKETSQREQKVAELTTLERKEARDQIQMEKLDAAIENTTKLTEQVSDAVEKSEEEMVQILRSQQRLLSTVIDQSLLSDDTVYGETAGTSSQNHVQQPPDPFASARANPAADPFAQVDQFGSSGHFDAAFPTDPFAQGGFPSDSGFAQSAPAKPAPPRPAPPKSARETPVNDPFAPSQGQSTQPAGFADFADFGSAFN
# UniProt Q8MYM6: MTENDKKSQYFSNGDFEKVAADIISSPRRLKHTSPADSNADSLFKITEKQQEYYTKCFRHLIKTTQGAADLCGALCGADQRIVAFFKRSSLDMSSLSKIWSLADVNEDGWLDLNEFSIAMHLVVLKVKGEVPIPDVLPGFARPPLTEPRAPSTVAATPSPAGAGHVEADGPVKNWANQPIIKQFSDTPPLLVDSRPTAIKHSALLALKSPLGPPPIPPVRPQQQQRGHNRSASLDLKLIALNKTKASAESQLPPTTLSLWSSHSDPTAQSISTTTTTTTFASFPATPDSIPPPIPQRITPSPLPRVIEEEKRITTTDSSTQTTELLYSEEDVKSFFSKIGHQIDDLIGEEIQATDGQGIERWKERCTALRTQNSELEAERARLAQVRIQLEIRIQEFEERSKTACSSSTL
# Target: T1, EH-domain bait of R10E11.6 (aa 55-360) (C. elegans) (UniProt P34550)
# T1 sequence: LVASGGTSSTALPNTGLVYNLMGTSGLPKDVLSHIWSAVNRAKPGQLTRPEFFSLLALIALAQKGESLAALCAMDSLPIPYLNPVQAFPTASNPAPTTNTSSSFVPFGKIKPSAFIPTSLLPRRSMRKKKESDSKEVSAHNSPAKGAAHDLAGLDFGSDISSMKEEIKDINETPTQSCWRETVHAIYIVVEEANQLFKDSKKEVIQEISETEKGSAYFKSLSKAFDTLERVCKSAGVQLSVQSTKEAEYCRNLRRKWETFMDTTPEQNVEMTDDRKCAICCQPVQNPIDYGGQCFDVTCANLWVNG
# Assay: two-hybrid; ProQuest system, yeast MaV203; EH-domain baits in pDBLeu, C. elegans cDNA library or re-transformed inserts in pPC86; growth in selective media (3-AT) and LacZ expression
row,binding,Substance
1,no binding,D1081.7 (two-hybrid prey) (C. elegans)
2,no binding,VAB-19 (two-hybrid prey) (C. elegans)
3,no binding,M03A8.3 (two-hybrid prey) (C. elegans)
4,no binding,K04H4.2 (two-hybrid prey) (C. elegans)
5,no binding,Y37E3.11 (two-hybrid prey) (C. elegans)
6,no binding,T05E7.5 (two-hybrid prey) (C. elegans)
7,no binding,TAG-208 (two-hybrid prey) (C. elegans)
8,no binding,AIN-2 (two-hybrid prey) (C. elegans)
9,no binding,F46H5.7 (two-hybrid prey) (C. elegans)
10,no binding,EPN-1 (two-hybrid prey) (C. elegans)
11,no binding,T23G11.7 (two-hybrid prey) (C. elegans)
12,no binding,DAB-1 (two-hybrid prey) (C. elegans)
13,no binding,BE0003N10.3 (two-hybrid prey) (C. elegans)
14,no binding,T05F1.4 (two-hybrid prey) (C. elegans)
15,no binding,PQN-32 (two-hybrid prey) (C. elegans)
16,no binding,CAS-1 (two-hybrid prey) (C. elegans)

# Target: T2, GST-BATH-42 (C. elegans) (UniProt P34371)
# T2 sequence: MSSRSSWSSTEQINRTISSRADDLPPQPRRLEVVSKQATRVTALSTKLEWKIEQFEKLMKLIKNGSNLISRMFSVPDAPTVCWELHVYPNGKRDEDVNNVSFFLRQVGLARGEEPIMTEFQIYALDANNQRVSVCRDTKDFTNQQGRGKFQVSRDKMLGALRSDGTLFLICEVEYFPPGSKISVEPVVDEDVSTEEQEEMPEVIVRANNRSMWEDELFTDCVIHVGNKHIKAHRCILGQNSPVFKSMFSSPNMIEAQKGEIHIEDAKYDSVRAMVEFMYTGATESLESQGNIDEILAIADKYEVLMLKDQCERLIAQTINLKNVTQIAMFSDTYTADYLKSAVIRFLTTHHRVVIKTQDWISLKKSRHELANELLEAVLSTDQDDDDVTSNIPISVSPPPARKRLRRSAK
# Assay: pull-down; 10 µg of GST protein on Glutathione Sepharose beads incubated 2 hours with Phoenix cell lysate holding the FLAG-tagged EH protein; JS buffer (Hepes 50 mM pH 7.4, NaCl 150 mM, Triton X100 1%); anti-FLAG immunoblot; only the target purified
row,Substance,binding
1,FLAG-tagged full-length EHS-1 (aa 1-796) (from UniProt G8JYD8),no binding (tested: 10 µg of GST protein)

# Target: T3, GST-FLH-1 (C. elegans) (UniProt Q9XWR1)
# T3 sequence: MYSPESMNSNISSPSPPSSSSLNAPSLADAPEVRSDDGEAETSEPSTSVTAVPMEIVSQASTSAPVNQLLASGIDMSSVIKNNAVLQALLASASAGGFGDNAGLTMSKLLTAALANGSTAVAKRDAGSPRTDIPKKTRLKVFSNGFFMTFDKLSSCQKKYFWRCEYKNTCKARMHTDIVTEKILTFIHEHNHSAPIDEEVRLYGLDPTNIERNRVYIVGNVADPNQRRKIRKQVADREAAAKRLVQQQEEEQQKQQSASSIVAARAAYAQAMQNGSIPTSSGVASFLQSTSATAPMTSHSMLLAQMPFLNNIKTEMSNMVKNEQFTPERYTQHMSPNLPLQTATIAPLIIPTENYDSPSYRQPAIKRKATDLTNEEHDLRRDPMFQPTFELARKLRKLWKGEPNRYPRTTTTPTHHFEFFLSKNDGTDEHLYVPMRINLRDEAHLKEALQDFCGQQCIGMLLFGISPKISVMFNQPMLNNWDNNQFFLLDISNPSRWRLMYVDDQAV
# Assay: as above
row,binding,Substance
1,binds,FLAG-tagged full-length REPS-1 (aa 1-410) (from UniProt Q8MYM6)
2,binds,FLAG-tagged full-length EHS-1 (aa 1-796) (from UniProt G8JYD8)

row,Substance,binding
1,FLAG-tagged full-length ITSN-1 (aa 1-1085) (C. elegans),no binding (tested: 10 µg of GST protein)

# Target: T4, GST-SEL-5 (C. elegans) (UniProt G5ECQ3)
# T4 sequence: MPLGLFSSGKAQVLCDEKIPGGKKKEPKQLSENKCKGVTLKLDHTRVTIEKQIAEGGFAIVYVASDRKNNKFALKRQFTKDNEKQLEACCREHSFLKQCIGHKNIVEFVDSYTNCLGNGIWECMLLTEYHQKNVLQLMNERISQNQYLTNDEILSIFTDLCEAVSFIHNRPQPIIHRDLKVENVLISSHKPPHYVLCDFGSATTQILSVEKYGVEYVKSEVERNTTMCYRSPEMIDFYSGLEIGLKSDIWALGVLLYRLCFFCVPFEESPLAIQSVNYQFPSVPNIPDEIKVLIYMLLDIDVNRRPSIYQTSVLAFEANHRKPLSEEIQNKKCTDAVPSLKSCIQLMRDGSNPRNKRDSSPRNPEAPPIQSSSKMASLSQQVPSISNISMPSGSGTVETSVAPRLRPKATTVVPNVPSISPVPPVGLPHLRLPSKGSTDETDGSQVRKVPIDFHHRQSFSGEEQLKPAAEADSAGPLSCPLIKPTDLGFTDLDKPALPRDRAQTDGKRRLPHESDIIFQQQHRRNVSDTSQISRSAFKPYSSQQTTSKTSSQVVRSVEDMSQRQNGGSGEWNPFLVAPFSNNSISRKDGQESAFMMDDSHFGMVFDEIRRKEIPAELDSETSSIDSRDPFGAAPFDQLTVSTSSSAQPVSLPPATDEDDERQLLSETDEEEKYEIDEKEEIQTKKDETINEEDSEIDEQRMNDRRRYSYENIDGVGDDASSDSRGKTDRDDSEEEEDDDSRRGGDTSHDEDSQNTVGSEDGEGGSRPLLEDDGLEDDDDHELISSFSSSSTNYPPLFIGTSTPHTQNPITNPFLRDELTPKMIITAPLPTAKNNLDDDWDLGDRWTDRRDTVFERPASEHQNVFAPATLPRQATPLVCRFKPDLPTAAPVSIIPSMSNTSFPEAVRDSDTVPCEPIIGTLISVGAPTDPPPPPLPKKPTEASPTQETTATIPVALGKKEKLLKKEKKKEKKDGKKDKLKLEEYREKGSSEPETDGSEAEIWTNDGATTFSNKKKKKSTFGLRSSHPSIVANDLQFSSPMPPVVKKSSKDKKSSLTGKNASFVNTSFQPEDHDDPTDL
# Assay: as above
row,binding,Substance
1,binds,FLAG-tagged full-length REPS-1 (aa 1-410) (from UniProt Q8MYM6)

# From PMC3570524
